Paper PMC5484104
Results are given in words; binding and its absence hold for the method and conditions named. In cells and extracts the contact can be indirect. Some results given as binding are weak or reduced against the parent protein; the word gives no strength.

Biological target: transcription factor E2F-4 (human (endogenous in HCT116)), Q16254
Test: co-IP; p53+/+ and p53−/− HCT116 cells incubated with or without 150 μg/mL fucoidan for 24 h; 500 μg protein immunoprecipitated with anti-E2F-1 or anti-E2F-4 antibodies (6 h, 4 °C, protein A-Sepharose), blot probed with anti-pRB
Conditions: remark: other sources report otherwise

- binding: binds
B1: retinoblastoma protein (pRB), P06400 1-928 (protein)
chain: MPPKTPRKTAATAAAAAAEPPAPPPPPPPEEDPEQDSGPEDLPLVRLEFEETEEPDFTALCQKLKIPDHVRERAWLTWEKVSSVDGVLGGYIQKKKELWGICIFIAAVDLDEMSFTFTELQKNIEISVHKFFNLLKEIDTSTKVDNAMSRLLKKYDVLFALFSKLERTCELIYLTQPSSSISTEINSALVLKVSWITFLLAKGEVLQMEDDLVISFQLMLCVLDYFIKLSPPMLLKEPYKTAVIPINGSPRTPRRGQNRSARIAKQLENDTRIIEVLCKEHECNIDEVKNVYFKNFIPFMNSLGLVTSNGLPEVENLSKRYEEIYLKNKDLDARLFLDHDKTLQTDSIDSFETQRTPRKSNLDEEVNVIPPHTPVRTVMNTIQQLMMILNSASDQPSENLISYFNNCTVNPKESILKRVKDIGYIFKEKFAKAVGQGCVEIGSQRYKLGVRLYYRVMESMLKSEEERLSIQNFSKLLNDNIFHMSLLACALEVVMATYSRSTSQNLDSGTDLSFPWILNVLNLKAFDFYKVIESFIKAEGNLTREMIKHLERCEHRIMESLAWLSDSPLFDLIKQSKDREGPTDHLESACPLNLPLQNNHTAADMYLSPVRSPKKKGSTTRVNSTANAETQATSAFQTQKPLKSTSLSLFYKKVYRLAYLRLNTLCERLLSEHPELEHIIWTLFQHTLQNEYELMRDRHLDQIMMCSMYGICKVKNIDLKFKIIVTAYKDLPHAVQETFKRVLIKEEEYDSIIVFYNSVFMQRLKTNILQYASTRPPTLSPIPHIPRSPYKFPSSPLRIPGGNIYISPLKSPYKISEGLPTPTKMTPRSRILVSIGESFGTSEKFQKINQMVCNSDRVLKRSAEGSNPPKPLKKLRFDIEGSDEADGSKHLPGESKFQQKLAEMTSTRTRMQKQKMNDSMDTSNKEEK
